Data as given in PubChem BioAssay AID1508597 (Cure First, 2020)

Test: 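Survival screen with siRNA in ovarian cancer cells derived from patients, with or without rucaparib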 (primary screen)
System: human ovarian carcinoma lines grown from tumours: OCI-P5x (papillary serous) and OCI-C5x (clear cell)
Reagent: siRNA pool against human genes, 1.25 pmol siRNA per well
Timing: 72 h or 96 h, depending on the cell culture
Treatment: rucaparib 20 µM (about IC30) or vehicle, present until read-out
Rucaparib or vehicle: Vehicle
Cell line: OCI-C5x (clear cell)
Detection: 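Luminescent ATP-based viability assay read 72 or 96 h after transfection, depending on culture, given as normalised percent viability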
Direction: viability, normalised: higher = more viable cells remaining
Call rule: 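a well counts as a hit if its normalised viability is under 80 percent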
Meaning of the calls: active = viability under 80%; inactive = viability 80% or more
This is an unselected part of the about 2,100 reagents, under one of the conditions tested. 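Calls flag viability under 80% in either arm, not effects specific to rucaparib; the reference for percent is not stated.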 A number with no mark means an inactive call. No sequences are given here. Not given: the 100% reference.

gene,technical replicate,"viability, normalised (%)"
PAK2,1,130
PAK2,2,77.2 (active)
PAK2,3,70.6 (active)
PHF8,1,54.6 (active)
PHF8,2,55.4 (active)
PHF8,3,44.9 (active)
SMARCE1,1,39.9 (active)
SMARCE1,2,30.3 (active)
SMARCE1,3,27.3 (active)
PCDHB3,1,38.9 (active)
PCDHB3,2,35.4 (active)
PCDHB3,3,41.4 (active)
USP22,1,49.6 (active)
USP22,2,58.9 (active)
USP22,3,61.8 (active)
MNAT1,1,38.2 (active)
MNAT1,2,46.1 (active)
MNAT1,3,50.6 (active)
CSRNP2,1,64.6 (active)
CSRNP2,2,64.6 (active)
CSRNP2,3,49 (active)
BRWD1,1,50.2 (active)
BRWD1,2,50.3 (active)
BRWD1,3,49.8 (active)
SLC1A3,1,38.8 (active)
SLC1A3,2,30.2 (active)
SLC1A3,3,43.1 (active)
XAB2,1,82.1
XAB2,2,24.9 (active)
XAB2,3,19.6 (active)
GDPD1,1,33.1 (active)
GDPD1,2,36.8 (active)
GDPD1,3,45.1 (active)
BCL10,1,43.9 (active)
BCL10,2,40 (active)
BCL10,3,31 (active)
BANP,1,58.7 (active)
BANP,2,77.4 (active)
BANP,3,43.5 (active)

Records above whose gene name starts with G or g:
gene,technical replicate,"viability, normalised (%)"
GDPD1,1,33.1 (active)
GDPD1,2,36.8 (active)
GDPD1,3,45.1 (active)
